{"source": "paper PMC6346578", "molecular_target": "T1, SACE_5754 (TetR family regulator) (UniProt A4FLL4)", "T1 sequence (looked up)": "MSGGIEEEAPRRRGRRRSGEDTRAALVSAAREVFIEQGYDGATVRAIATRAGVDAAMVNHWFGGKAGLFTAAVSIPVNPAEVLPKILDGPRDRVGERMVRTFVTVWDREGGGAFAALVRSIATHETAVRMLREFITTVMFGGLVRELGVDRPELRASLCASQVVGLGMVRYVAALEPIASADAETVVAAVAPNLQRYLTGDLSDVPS", "assay": "EMSA", "details": "EMSA: 10 mM Tris pH 7.5, 5 mM MgCl2, 60 mM KCl, 10 mM DTT, 10% glycerol, 30 C 10 min, 20 uL; 6% native PAGE, 1x TAE; recombinant protein; residues 1-207; protein details: C-terminal His6 (pET22b); probe letters rebuilt from the primers and the genome", "note": "No signal at the amounts used counts as a negative. Protein sequences can lack the tags named with them.", "data": [{"sequence": "GATACGGCCGCCACGAGCAGCGGAACTACCAACAACAGCGGCGCGATGCGGATGACCAGCCGTTTCACGCGCTCACCCCCAGTCATGCAAACAATTTTCAGCTTGATCAACCTAACACCGGCGCGCGGTGCCGACACGGACTTTTCGGACGCCGCTCCTCGGCCGGACATCGCAGCGGAAAGCGCGATCCACAATGGACGCAACGGGAGTCGTAAACCGGCTGATGTGATCCAGGACACAAAGCTCGACGGGTTGGCCGCGGCGCCGCGCTCGTTATGATCTTCCTTGTGGGACTAGGCAAATGCCGCATATGCGGGAACCATGACCTCGAGTCCGTGCTGC (double strand) [PeryBI-BIII]", "values": [{"measurement": "binding result", "result": "no binding"}]}]}
